PubChem BioAssay AID686938, Drosophila RNAi Screening Center, 2013
In all, the deposit lists about 23,000 reagents; this is a random part of those with a known target gene and a result. In the full data, 75 (0.33%) are marked active. 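Raw plate signals without normalisation; calls rest on plate z-scores that were not deposited; ratio present for only 364 wells.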 A number with no mark means an inactive call. Not given: the dose of the treatment.

Test: 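Knock-downs reducing store-operated calcium influx in Drosophila cells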 (primary screen)
Cell system: Drosophila S2R+ cells
Knock-down reagent: long dsRNA against Drosophila genes, about 0.25 µg dsRNA per well, roughly 10,000 cells
Timing: 5 days of knock-down before the calcium assay
Conditions: thapsigargin (SERCA pump blocker) to empty calcium stores; entry signal taken 4 min after adding it
Detection: 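Per-well fluo-4 fluorescence in two replicates, unnormalised, measured in resting cells and 4 min after store depletion by the SERCA blocker thapsigargin; ratio of the two present in few wells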
Reading the numbers: calcium entry signal: higher = stronger calcium signal after store depletion; resting calcium signal: higher = higher resting calcium signal
Units: calcium entry signal in fluorescence units; resting calcium signal in fluorescence units
Active means: 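Called when the plate z-score of the entry-to-rest ratio, mean of duplicates, falls below −3; wells with low overall dye signal (Fmax z below −2) or more than five off-targets excluded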
Meaning of the calls: active = strongly reduced calcium entry; inactive = no strong reduction

With CG7203 [DRSC03026], what does the deposit list?
calcium entry signal, replicate 1: 2.63e7; calcium entry signal, replicate 2: 3.22e7; resting calcium signal, replicate 1: 1.11e7; resting calcium signal, replicate 2: 1.49e7

With CG33333 [DRSC13233], what was measured?
calcium entry signal, replicate 1: 4.22e7; calcium entry signal, replicate 2: 2.31e7; resting calcium signal, replicate 1: 1.87e7; resting calcium signal, replicate 2: 1.10e7

For CG13837 [DRSC14687], how do the results read?
calcium entry signal, replicate 1: 5.86e7; calcium entry signal, replicate 2: 6.48e7; resting calcium signal, replicate 1: 2.80e7; resting calcium signal, replicate 2: 2.41e7

For ppk8 [DRSC17269], how do the results read?
calcium entry signal, replicate 1: 4.54e7; calcium entry signal, replicate 2: 3.65e7; resting calcium signal, replicate 1: 2.45e7; resting calcium signal, replicate 2: 1.62e7

Which result is listed for Spn77Ba [DRSC10693]?
calcium entry signal, replicate 1: 2.92e7; calcium entry signal, replicate 2: 3.73e7; resting calcium signal, replicate 1: 1.47e7; resting calcium signal, replicate 2: 2.73e7

For CG9265 [DRSC03178], how do the results read?
calcium entry signal, replicate 1: 5.87e7; calcium entry signal, replicate 2: 4.55e7; resting calcium signal, replicate 1: 2.73e7; resting calcium signal, replicate 2: 1.94e7

Which result is listed for CG9265 [DRSC03179]?
calcium entry signal, replicate 1: 5.66e7; calcium entry signal, replicate 2: 4.67e7; resting calcium signal, replicate 1: 2.70e7; resting calcium signal, replicate 2: 2.12e7

With CG18870 [DRSC04313], what was measured?
calcium entry signal, replicate 1: 5.92e7; calcium entry signal, replicate 2: 5.40e7; resting calcium signal, replicate 1: 2.76e7; resting calcium signal, replicate 2: 2.24e7

Which result is listed for Mmp2 [DRSC06698]?
calcium entry signal, replicate 1: 3.67e7; calcium entry signal, replicate 2: 4.41e7; resting calcium signal, replicate 1: 1.82e7; resting calcium signal, replicate 2: 1.74e7

For Mmp2 [DRSC22024], how do the results read?
calcium entry signal, replicate 1: 2.36e7; calcium entry signal, replicate 2: 4.01e7; resting calcium signal, replicate 1: 1.18e7; resting calcium signal, replicate 2: 2.07e7

How did the screen score CG12645 [DRSC17851]?
calcium entry signal, replicate 1: 3.11e7; calcium entry signal, replicate 2: 3.67e7; resting calcium signal, replicate 1: 1.57e7; resting calcium signal, replicate 2: 1.84e7

What did the screen give for 18w [DRSC05029]?
calcium entry signal, replicate 1: 3.13e7; calcium entry signal, replicate 2: 2.68e7; resting calcium signal, replicate 1: 1.44e7; resting calcium signal, replicate 2: 1.42e7

2 neighbouring entries from above, for reference:
CG12645 [DRSC17851] | calcium entry signal, replicate 1 = 3.11e7; calcium entry signal, replicate 2 = 3.67e7; resting calcium signal, replicate 1 = 1.57e7; resting calcium signal, replicate 2 = 1.84e7
18w [DRSC05029] | calcium entry signal, replicate 1 = 3.13e7; calcium entry signal, replicate 2 = 2.68e7; resting calcium signal, replicate 1 = 1.44e7; resting calcium signal, replicate 2 = 1.42e7
